Measured values reported in the supplement of paper PMC12067093, “Discovery and optimisation of a covalent ligand for TRIM25 and its application to targeted protein ubiquitination” (Chemical Science, 2025).
The other results are listed elsewhere or left out.

Sequences of proteins named here, by UniProt entry; tags and fusion partners are left off. A change or cut given only in a name is not applied to a line headed by its entry.
UniProt Q5VSL9: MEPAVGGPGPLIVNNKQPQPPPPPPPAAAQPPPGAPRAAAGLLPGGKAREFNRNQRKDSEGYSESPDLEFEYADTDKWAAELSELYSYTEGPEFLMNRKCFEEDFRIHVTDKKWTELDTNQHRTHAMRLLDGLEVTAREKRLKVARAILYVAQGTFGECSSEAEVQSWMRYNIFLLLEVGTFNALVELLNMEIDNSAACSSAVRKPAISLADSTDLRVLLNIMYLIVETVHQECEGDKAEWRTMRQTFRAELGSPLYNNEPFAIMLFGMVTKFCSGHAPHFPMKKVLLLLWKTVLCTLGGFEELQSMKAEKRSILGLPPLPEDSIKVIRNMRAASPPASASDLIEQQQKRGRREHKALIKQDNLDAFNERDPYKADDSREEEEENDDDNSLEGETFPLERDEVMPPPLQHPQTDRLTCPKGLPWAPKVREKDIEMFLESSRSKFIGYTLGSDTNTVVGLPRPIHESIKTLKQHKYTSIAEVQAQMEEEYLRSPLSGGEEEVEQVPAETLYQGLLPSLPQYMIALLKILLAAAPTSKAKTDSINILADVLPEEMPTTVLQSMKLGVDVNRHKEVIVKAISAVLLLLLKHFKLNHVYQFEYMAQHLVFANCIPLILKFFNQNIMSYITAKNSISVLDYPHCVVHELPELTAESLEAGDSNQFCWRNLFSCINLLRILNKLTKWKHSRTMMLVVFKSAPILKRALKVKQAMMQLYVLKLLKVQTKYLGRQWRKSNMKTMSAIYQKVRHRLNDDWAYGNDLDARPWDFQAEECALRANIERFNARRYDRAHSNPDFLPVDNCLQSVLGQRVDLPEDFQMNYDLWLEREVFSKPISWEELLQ
UniProt P84103: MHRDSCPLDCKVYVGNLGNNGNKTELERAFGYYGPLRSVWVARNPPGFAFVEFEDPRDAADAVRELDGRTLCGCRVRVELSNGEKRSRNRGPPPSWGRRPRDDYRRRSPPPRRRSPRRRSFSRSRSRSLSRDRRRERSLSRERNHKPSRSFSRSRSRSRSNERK
UniProt Q96SI9: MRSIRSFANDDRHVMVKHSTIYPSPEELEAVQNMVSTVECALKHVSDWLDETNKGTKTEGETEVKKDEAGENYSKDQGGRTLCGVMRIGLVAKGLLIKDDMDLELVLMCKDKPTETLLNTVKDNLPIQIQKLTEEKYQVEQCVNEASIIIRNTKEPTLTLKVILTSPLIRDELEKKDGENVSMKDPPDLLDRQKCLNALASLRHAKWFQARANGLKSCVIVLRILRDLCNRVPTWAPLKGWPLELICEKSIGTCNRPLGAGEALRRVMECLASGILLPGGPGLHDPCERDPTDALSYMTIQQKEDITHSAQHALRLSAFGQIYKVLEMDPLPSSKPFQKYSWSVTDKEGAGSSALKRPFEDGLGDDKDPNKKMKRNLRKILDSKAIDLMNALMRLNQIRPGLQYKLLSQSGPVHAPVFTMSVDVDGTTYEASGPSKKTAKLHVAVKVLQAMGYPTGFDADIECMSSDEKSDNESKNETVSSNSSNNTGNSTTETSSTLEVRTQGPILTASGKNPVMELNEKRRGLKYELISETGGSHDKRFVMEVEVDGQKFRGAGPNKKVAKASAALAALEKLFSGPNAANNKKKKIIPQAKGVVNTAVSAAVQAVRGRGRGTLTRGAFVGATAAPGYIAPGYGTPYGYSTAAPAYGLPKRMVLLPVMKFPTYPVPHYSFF
UniProt O75494: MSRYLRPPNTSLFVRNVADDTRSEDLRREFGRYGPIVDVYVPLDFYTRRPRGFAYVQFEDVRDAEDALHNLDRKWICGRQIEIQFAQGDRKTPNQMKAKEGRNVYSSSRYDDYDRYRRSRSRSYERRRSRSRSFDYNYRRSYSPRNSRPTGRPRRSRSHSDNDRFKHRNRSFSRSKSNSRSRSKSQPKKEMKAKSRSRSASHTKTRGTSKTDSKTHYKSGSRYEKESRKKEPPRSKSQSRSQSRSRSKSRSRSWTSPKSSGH
UniProt O94768: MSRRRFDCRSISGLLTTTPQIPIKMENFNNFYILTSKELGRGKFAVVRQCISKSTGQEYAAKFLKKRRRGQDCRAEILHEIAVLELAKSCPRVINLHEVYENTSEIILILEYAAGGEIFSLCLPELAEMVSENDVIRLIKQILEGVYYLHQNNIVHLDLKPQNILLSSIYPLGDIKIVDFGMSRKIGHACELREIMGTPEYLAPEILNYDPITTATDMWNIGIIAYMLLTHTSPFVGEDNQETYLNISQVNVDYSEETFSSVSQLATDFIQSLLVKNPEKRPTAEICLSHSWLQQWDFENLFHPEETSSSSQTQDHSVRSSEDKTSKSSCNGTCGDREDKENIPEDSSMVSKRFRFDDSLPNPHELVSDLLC
UniProt Q9Y5B9, whole entry, looked up: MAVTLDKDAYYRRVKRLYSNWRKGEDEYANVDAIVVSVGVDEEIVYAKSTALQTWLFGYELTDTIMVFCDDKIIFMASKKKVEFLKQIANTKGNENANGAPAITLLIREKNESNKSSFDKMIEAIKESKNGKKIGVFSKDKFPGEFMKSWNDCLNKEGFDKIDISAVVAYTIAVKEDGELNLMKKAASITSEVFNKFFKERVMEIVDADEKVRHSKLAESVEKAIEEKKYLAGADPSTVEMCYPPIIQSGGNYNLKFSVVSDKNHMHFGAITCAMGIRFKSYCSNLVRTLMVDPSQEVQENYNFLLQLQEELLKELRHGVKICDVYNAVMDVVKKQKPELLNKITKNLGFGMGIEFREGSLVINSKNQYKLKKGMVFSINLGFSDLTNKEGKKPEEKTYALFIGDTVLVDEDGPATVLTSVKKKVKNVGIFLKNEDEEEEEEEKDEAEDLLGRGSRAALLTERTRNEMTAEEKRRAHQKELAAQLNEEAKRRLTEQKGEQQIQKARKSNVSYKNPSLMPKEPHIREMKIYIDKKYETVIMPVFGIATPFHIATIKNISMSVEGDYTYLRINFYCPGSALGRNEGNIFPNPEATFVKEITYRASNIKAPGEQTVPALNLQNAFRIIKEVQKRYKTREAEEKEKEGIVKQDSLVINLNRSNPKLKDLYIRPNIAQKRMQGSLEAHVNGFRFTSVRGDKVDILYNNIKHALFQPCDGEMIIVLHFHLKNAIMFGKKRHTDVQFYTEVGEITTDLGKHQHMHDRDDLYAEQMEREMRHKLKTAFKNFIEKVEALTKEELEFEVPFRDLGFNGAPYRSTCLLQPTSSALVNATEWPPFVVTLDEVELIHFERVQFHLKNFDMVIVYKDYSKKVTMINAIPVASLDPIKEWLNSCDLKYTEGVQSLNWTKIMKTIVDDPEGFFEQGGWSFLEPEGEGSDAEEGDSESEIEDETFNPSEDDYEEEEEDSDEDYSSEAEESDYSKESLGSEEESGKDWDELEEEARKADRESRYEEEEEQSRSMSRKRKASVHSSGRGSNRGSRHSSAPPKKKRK
UniProt Q08945, whole entry, looked up: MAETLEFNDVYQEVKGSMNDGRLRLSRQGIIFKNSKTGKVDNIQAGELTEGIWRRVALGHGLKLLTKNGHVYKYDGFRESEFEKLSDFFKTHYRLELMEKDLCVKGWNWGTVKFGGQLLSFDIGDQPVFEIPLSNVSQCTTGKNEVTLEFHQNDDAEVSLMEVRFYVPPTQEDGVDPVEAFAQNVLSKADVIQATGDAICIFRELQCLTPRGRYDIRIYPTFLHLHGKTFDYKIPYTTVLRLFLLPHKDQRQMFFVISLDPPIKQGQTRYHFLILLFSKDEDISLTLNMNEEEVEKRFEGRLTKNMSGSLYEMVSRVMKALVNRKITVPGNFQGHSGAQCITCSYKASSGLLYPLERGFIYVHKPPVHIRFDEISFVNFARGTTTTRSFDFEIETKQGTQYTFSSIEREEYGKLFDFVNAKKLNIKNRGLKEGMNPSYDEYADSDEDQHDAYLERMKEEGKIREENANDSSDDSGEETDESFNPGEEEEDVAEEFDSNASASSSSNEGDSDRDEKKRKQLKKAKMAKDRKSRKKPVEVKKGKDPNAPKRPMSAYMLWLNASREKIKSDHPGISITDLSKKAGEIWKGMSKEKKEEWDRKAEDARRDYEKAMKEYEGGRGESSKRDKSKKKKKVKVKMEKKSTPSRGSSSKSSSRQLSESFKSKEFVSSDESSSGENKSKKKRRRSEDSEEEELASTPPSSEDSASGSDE
UniProt Q07955, whole entry, looked up: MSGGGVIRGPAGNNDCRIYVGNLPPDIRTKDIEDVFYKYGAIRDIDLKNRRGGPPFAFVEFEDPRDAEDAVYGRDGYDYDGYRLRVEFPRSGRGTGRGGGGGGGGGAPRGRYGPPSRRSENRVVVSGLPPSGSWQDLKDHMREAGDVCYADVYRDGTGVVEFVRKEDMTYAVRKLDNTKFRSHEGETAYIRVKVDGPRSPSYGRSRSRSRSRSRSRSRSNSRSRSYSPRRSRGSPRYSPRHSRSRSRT
UniProt Q8N1F8: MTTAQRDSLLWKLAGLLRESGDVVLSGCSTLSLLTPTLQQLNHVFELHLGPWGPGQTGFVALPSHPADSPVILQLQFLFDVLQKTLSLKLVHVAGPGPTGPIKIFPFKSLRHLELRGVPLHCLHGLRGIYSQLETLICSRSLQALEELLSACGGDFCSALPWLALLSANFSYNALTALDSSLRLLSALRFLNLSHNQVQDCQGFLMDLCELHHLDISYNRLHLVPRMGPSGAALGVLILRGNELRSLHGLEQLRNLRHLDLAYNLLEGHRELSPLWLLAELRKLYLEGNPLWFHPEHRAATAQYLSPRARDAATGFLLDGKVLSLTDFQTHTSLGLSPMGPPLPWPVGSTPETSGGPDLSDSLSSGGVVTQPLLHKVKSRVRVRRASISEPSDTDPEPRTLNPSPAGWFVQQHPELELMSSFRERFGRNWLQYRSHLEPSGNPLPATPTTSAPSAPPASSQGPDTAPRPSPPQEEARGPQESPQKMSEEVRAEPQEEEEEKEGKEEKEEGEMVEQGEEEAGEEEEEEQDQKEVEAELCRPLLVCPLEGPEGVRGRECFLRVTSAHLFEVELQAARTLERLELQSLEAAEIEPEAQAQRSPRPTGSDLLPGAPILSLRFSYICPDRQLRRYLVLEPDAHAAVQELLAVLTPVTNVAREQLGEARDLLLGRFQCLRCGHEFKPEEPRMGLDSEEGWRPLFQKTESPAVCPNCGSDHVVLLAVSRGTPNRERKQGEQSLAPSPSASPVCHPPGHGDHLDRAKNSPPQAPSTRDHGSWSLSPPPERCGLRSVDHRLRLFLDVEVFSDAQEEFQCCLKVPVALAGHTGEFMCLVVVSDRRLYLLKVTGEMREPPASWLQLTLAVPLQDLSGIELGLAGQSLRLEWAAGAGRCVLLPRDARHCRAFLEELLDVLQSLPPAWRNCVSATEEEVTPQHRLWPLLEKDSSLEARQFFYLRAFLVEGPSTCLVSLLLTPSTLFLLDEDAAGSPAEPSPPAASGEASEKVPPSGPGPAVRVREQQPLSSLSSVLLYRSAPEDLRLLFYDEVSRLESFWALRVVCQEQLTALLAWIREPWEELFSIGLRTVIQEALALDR
UniProt O43463: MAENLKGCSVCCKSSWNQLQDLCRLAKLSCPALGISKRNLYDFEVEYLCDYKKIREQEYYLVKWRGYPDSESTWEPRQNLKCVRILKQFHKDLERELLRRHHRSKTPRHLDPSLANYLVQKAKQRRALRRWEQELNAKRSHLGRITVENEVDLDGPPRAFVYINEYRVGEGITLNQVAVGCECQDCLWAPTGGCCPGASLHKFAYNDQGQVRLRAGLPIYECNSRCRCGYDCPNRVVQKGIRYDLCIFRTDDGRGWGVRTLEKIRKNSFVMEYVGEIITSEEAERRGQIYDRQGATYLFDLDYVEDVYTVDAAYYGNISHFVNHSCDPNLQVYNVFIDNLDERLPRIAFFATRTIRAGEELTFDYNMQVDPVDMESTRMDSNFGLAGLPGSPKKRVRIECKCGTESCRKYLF
UniProt P53597: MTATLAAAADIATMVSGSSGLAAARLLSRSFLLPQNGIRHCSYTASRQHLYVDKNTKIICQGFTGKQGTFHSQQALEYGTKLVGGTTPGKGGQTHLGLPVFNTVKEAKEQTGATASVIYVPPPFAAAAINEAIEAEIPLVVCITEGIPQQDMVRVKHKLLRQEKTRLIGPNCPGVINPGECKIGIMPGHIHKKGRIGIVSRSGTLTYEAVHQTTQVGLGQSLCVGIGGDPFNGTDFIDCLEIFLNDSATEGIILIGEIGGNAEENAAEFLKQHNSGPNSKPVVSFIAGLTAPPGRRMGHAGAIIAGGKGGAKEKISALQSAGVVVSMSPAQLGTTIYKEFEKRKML
UniProt Q15527: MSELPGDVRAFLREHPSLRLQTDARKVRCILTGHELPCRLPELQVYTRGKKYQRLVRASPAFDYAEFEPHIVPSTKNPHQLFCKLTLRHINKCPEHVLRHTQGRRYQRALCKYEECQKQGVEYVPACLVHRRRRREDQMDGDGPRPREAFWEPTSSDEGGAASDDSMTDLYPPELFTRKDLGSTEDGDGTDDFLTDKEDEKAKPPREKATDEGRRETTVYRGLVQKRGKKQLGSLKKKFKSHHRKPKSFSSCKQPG

Compound: Cc1cc(ccc1-c1ccccc1)C(=O)N1CCCN(CC1)C(=O)CCl [compound 10]
Test: probe-labelled cysteine peptide fold change vs DMSO (competition) (log2 fold change); higher = less target engagement (more negative = stronger competition)
Settings: 10 µM; THP-1; incubation time: 4 h
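Further: competitive profiling in live THP-1 cells: cysteine peptides tagged with an iodoacetamide desthiobiotin (IA-DTB) probe, intensity after compound treatment relative to DMSO-treated cells.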

First: STXBP3_O00186_557_SCEVIIGSTHVLTPK (UniProt O00186)
Second: SUMF1_Q8NBK3_365_CAADRLPTMD (UniProt Q8NBK3)
The “probe-labelled cysteine peptide fold change” value of the first is higher: 0.0882 for the first, -0.207 for the second.

Compared with “STAMBP_O95630_406+408_DPPLFCSCSHVTVVDR (UniProt O95630)”, “SRRT_Q9BXP5_412_DAAGLECKPRPLHK (UniProt Q9BXP5)” is lower in “probe-labelled cysteine peptide fold change” value: -0.0134 for the first, -0.258 for the second.

First: STRIP1_Q5VSL9_798_AHSNPDFLPVDNCLQSVLGQR (UniProt Q5VSL9)
Second: SRSF3_P84103_10_DSCPLDCK (UniProt P84103)
The “probe-labelled cysteine peptide fold change” value of the first is lower: -0.0541 for the first, -0.0282 for the second.

First: SVIL_O95425_1903_GEVPVEGNLLEVACHCSSLR (UniProt O95425)
Second: STRBP_Q96SI9_142_YQVEQCVNEASIIIR (UniProt Q96SI9)
The “probe-labelled cysteine peptide fold change” value of the first is higher: 0.0682 for the first, -0.212 for the second.

Compared with “SUPT6H_Q7KZ85_939_RIQDPLIEFAQVCSSDEDILCLK (UniProt Q7KZ85)”, “SRSF10_O75494-5_149_KPNCSWNTQYSSAYYTSR (UniProt O75494)” is higher in “probe-labelled cysteine peptide fold change” value: -0.188 for the first, 0.124 for the second.

Going from “STK17B_O94768_372_FRFDDSLPNPHELVSDLLC (UniProt O94768)” to “STRN3_Q13033_757_TCVQEITAHR (UniProt Q13033)”, the “probe-labelled cysteine peptide fold change” value rises from -0.0801 to 0.117.

Compared with “SYK_P43405_89_THASPADLCHYHSQESDGLVCLLK (UniProt P43405)”, “SUCLA2_Q9P2R7_384_CDVIAQGIVMAVK (UniProt Q9P2R7)” is lower in “probe-labelled cysteine peptide fold change” value: 0.0513 for the first, 0.0333 for the second.

Compared with “STK17B_O94768_334_SSCNGTCGDREDK (UniProt O94768)”, “STEAP3_Q658P3_140_ESNAEYLASLFPTCTVVK (UniProt Q658P3)” is lower in “probe-labelled cysteine peptide fold change” value: 0.0198 for the first, -0.0165 for the second.

First: SUPT16H_Q9Y5B9_323_ICDVYNAVMDVVKK (UniProt Q9Y5B9)
Second: STIP1_P31948_339_KCQQAEK (UniProt P31948)
The “probe-labelled cysteine peptide fold change” value of the first is lower: -0.00366 for the first, 0.367 for the second.

Compared with “STAG2_Q8N3U4_527_QESALIEIMLCTIR (UniProt Q8N3U4)”, “SRRT_Q9BXP5_421_TCSLFMR (UniProt Q9BXP5)” is higher in “probe-labelled cysteine peptide fold change” value: -0.207 for the first, -0.138 for the second.

Going from “SSRP1_Q08945_200_ADVIQATGDAICIFR (UniProt Q08945)” to “SUPT4H1_P63272_16_ACLLCSLVK (UniProt P63272)”, the “probe-labelled cysteine peptide fold change” value falls from 0.0619 to 0.0392.

First: SRSF1_Q07955_148_EAGDVCYADVYR (UniProt Q07955)
Second: STK11IP_Q8N1F8_918_NCVSATEEEVTPQHR (UniProt Q8N1F8)
The “probe-labelled cysteine peptide fold change” value of the first is higher: 0.222 for the first, -0.116 for the second.

Compared with “SUPT6H_Q7KZ85_1465_EKPTFIPYFICACK (UniProt Q7KZ85)”, “SUV39H1_O43463_30_LSCPALGISK (UniProt O43463)” is lower in “probe-labelled cysteine peptide fold change” value: -0.0348 for the first, -0.0675 for the second.

Compared with “SUGP2_Q8IX01_656_GADQKPTSADCAVR (UniProt Q8IX01)”, “SUZ12_Q15022_531_TPITHILVCR (UniProt Q15022)” is higher in “probe-labelled cysteine peptide fold change” value: -0.106 for the first, -0.0964 for the second.

Going from “SYMPK_Q92797_1068_CPELREPLLAHVR (UniProt Q92797)” to “STXBP5_Q5T5C0_697_SRQPSGAGLCDISEGTVVPEDR (UniProt Q5T5C0)”, the “probe-labelled cysteine peptide fold change” value falls from 0.0226 to -0.389.

Going from “SRPRB_Q9Y5M8_73_AVLLVGLCDSGK (UniProt Q9Y5M8)” to “SUCLG1_P53597_172_LIGPNCPGVINPGECK (UniProt P53597)”, the “probe-labelled cysteine peptide fold change” value rises from -0.644 to 0.155.

Going from “SRRM2_Q9UQ35_70_CLELEEMMEEQGYEEQQIQEK (UniProt Q9UQ35)” to “SURF2_Q15527_93_CPEHVLR (UniProt Q15527)”, the “probe-labelled cysteine peptide fold change” value falls from 0.288 to 0.0015.

“SYK_P43405_206_DNNGSYALCLLHEGK (UniProt P43405)” was tested, and the “probe-labelled cysteine peptide fold change” value was -0.0437.

Same assay, conditions: 50 µM; THP-1; incubation time: 4 h

First: STXBP3_O00186_557_SCEVIIGSTHVLTPK (UniProt O00186)
Second: SUMF1_Q8NBK3_365_CAADRLPTMD (UniProt Q8NBK3)
The “probe-labelled cysteine peptide fold change” value of the first is higher: -0.126 for the first, -0.241 for the second.

Compared with “STAMBP_O95630_406+408_DPPLFCSCSHVTVVDR (UniProt O95630)”, “SRRT_Q9BXP5_412_DAAGLECKPRPLHK (UniProt Q9BXP5)” is lower in “probe-labelled cysteine peptide fold change” value: -0.382 for the first, -0.391 for the second.

First: STRIP1_Q5VSL9_798_AHSNPDFLPVDNCLQSVLGQR (UniProt Q5VSL9)
Second: SRSF3_P84103_10_DSCPLDCK (UniProt P84103)
The “probe-labelled cysteine peptide fold change” value of the first is higher: -0.196 for the first, -0.63 for the second.

Going from “SVIL_O95425_1903_GEVPVEGNLLEVACHCSSLR (UniProt O95425)” to “STRBP_Q96SI9_142_YQVEQCVNEASIIIR (UniProt Q96SI9)”, the “probe-labelled cysteine peptide fold change” value falls from -0.163 to -0.298.

First: SUPT6H_Q7KZ85_939_RIQDPLIEFAQVCSSDEDILCLK (UniProt Q7KZ85)
Second: SRSF10_O75494-5_149_KPNCSWNTQYSSAYYTSR (UniProt O75494)
The “probe-labelled cysteine peptide fold change” value of the first is higher: -0.239 for the first, -0.514 for the second.

Going from “STK17B_O94768_372_FRFDDSLPNPHELVSDLLC (UniProt O94768)” to “STRN3_Q13033_757_TCVQEITAHR (UniProt Q13033)”, the “probe-labelled cysteine peptide fold change” value falls from 0.369 to 0.132.

Compared with “SYK_P43405_89_THASPADLCHYHSQESDGLVCLLK (UniProt P43405)”, “SUCLA2_Q9P2R7_384_CDVIAQGIVMAVK (UniProt Q9P2R7)” is higher in “probe-labelled cysteine peptide fold change” value: -0.0785 for the first, 0.284 for the second.

First: STK17B_O94768_334_SSCNGTCGDREDK (UniProt O94768)
Second: STEAP3_Q658P3_140_ESNAEYLASLFPTCTVVK (UniProt Q658P3)
The “probe-labelled cysteine peptide fold change” value of the first is higher: -0.0928 for the first, -0.192 for the second.

Compared with “SUPT16H_Q9Y5B9_323_ICDVYNAVMDVVKK (UniProt Q9Y5B9)”, “STIP1_P31948_339_KCQQAEK (UniProt P31948)” is lower in “probe-labelled cysteine peptide fold change” value: 0.131 for the first, -0.271 for the second.

Going from “STAG2_Q8N3U4_527_QESALIEIMLCTIR (UniProt Q8N3U4)” to “SRRT_Q9BXP5_421_TCSLFMR (UniProt Q9BXP5)”, the “probe-labelled cysteine peptide fold change” value rises from -0.2 to 0.153.

Compared with “SSRP1_Q08945_200_ADVIQATGDAICIFR (UniProt Q08945)”, “SUPT4H1_P63272_16_ACLLCSLVK (UniProt P63272)” is lower in “probe-labelled cysteine peptide fold change” value: -0.0752 for the first, -0.179 for the second.

First: SRSF1_Q07955_148_EAGDVCYADVYR (UniProt Q07955)
Second: STK11IP_Q8N1F8_918_NCVSATEEEVTPQHR (UniProt Q8N1F8)
The “probe-labelled cysteine peptide fold change” value of the first is lower: -0.255 for the first, -0.123 for the second.

Compared with “SUPT6H_Q7KZ85_1465_EKPTFIPYFICACK (UniProt Q7KZ85)”, “SUV39H1_O43463_30_LSCPALGISK (UniProt O43463)” is higher in “probe-labelled cysteine peptide fold change” value: -0.0178 for the first, 0.0691 for the second.

Compared with “SUGP2_Q8IX01_656_GADQKPTSADCAVR (UniProt Q8IX01)”, “SUZ12_Q15022_531_TPITHILVCR (UniProt Q15022)” is higher in “probe-labelled cysteine peptide fold change” value: -0.168 for the first, -0.131 for the second.

Going from “SYMPK_Q92797_1068_CPELREPLLAHVR (UniProt Q92797)” to “STXBP5_Q5T5C0_697_SRQPSGAGLCDISEGTVVPEDR (UniProt Q5T5C0)”, the “probe-labelled cysteine peptide fold change” value falls from -0.195 to -0.218.

First: SRPRB_Q9Y5M8_73_AVLLVGLCDSGK (UniProt Q9Y5M8)
Second: SUCLG1_P53597_172_LIGPNCPGVINPGECK (UniProt P53597)
The “probe-labelled cysteine peptide fold change” value of the first is higher: 0.426 for the first, 0.0544 for the second.

Going from “SRRM2_Q9UQ35_70_CLELEEMMEEQGYEEQQIQEK (UniProt Q9UQ35)” to “SURF2_Q15527_93_CPEHVLR (UniProt Q15527)”, the “probe-labelled cysteine peptide fold change” value falls from 0.146 to -0.0829.

For “SYK_P43405_206_DNNGSYALCLLHEGK (UniProt P43405)”, the “probe-labelled cysteine peptide fold change” value was -0.0268.
